Some of the results follow. These are further read-outs of the screen, such as a control signal, another cell line or another target. No call is given for them. Most of these compounds were active or inconclusive in the main read-out, so they are no random draw. Potencies come from curve fits of mixed quality, noted in brackets.
Assay: qHTS Assay for Lipid Storage Modulators in Drosophila S3 Cells;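 as to cell number change: cells counted by Cell Tracker Red CMTPX staining in the red channel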
Conditions: BODIPY lipid droplet fluorescence, 18-24 h; for cell number change: measured here: cell count max response, cells fed with added oleic acid
Summary of the method: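 Laser-scanning cytometry quantifies lipid droplet accumulation (500–530 nm total intensity; droplet/cell object ratio) in oleic acid-fed (400 uM added) Drosophila S3 cells treated with a concentration series. 20 uM Triacsin C defined 100% inhibition.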

[1] = measured here: lipid fluorescence (Fed channel) AC50, cells fed with added oleic acid
[2] = measured here: cell number channel AC50, cells fed with added oleic acid

SMILES | cell number change [%] | AC50 [1] | AC50 [2]
CC(C)=CCC/C(C)=C/C=N/NC(=O)c1ccccc1[N+](=O)[O-] | 1.28 | 7.31 µM [falling, single point] | –
O=S(=O)(c1cc(Cl)ccc1Cl)n1nnc2ccccc21 | 43 | – | 29.1 µM [rising, single point]
COc1cccc(NC(=O)CN(c2cccc(F)c2)S(C)(=O)=O)c1 | 13.8 | 6.51 µM [rising, single point] | –
Cc1ccc(S(=O)(=O)NCc2ccccn2)cc1C | – | 29.1 µM [rising, single point] | 1.84 µM [rising, partial curve]
CCCCCCO | 15.9 | – | –
CCOc1ccccc1NC(=O)Cn1nnc(-c2ccc(OCC)c(OCC)c2)n1 | -52.8 | 2.91 µM [rising, partial curve] | 29.1 µM [falling, single point]
Cc1cc(NC(=O)Cn2cc([N+](=O)[O-])cn2)no1 | 6.33 | 1.64 µM [falling, partial curve] | –
Cc1nn(S(=O)(=O)N2CCCCC2)c(C)c1Br | 21 | 6.51 µM [falling, single point] | –
COc1ccccc1C1(O)CCN(CC(=O)Nc2nc(-c3ccccc3)cs2)CC1 | -28.9 | 9.2 µM [falling, partial curve] | –
Cc1ccccc1Nc1cc(C)c2c(O)cccc2n1 | -23.1 | 16.4 µM [falling, partial curve] | –
COc1ccccc1C(=O)NC(CCSC)C(=O)NCCCn1nc(C)cc1C (centres undefined) | 25.9 | 29.1 µM [rising, single point] | –
CCc1c(C)[nH]n(-c2nc(-c3ccccc3)cs2)c1=O | – | 29.1 µM [rising, single point] | –
O=C1N=C(c2ccccc2)C(c2ccccc2)N1 (centres undefined) | – | 2.59 µM [falling, single point] | –
Cc1ccc(NC(=O)CN(C)C(=S)NC2CC2)cc1 | -40.7 | 13 µM [falling, single point] | 5.17 µM [falling, full curve]
COc1cc(C(=O)NNC(=O)CNC(=O)c2ccc(Br)o2)cc(OC)c1OC | 17.8 | 2.91 µM [rising, single point] | –
CC(C)(CSc1ccccn1)NS(=O)(=O)c1ccc(Cl)cc1 | 8.71 | 4.11 µM [rising, partial curve] | –
CCNC(=O)COC(=O)c1cc(C)nc2ccccc12 | 3.42 | 0.092 µM [rising, full curve, poor fit] | 0.00461 µM [rising, full curve, poor fit]
Cc1cccc(C)c1OCc1cc(C(=O)N(C)Cc2nc3ccccc3[nH]2)no1 | -49 | 29.1 µM [falling, single point] | 18.4 µM [falling, partial curve, poor fit]
O=c1onc(-c2cccnc2)n1-c1ccccc1F | -15.6 | 0.092 µM [rising, full curve] | –
CCOC(=O)Nc1ccc2c(c1)N(C(=O)CCN(CC)CC)c1ccccc1CC2 | 5.47 | – | –
O=C(CN1CC(c2ccccc2)CC1=O)OCc1ccccc1F (centres undefined) | -7.08 | 0.058 µM [falling, full curve, poor fit] | –

Already shown: entries from further up.
SMILES | cell number change [%] | AC50 [1] | AC50 [2]
COc1ccccc1C(=O)NC(CCSC)C(=O)NCCCn1nc(C)cc1C (centres undefined) | 25.9 | 29.1 µM [rising, single point] | –
CCc1c(C)[nH]n(-c2nc(-c3ccccc3)cs2)c1=O | – | 29.1 µM [rising, single point] | –

More results follow:

SMILES | cell number change [%] | AC50 [1] | AC50 [2]
CCOC(=O)N1CCC(NC(=O)c2cc(C(=O)NC3CCCC3)ccc2CO)CC1 | -57.2 | 23.1 µM [falling, partial curve] | 16.4 µM [falling, partial curve]
Cc1onc(-c2ccccc2Cl)c1C(=O)Nc1c(C)n(C)n(-c2ccccc2)c1=O | -13.5 | – | –
CCCN(CC(=O)Nc1ccccc1OC)Cc1c(O)ccc2ccccc12 | 10.1 | 29.1 µM [rising, single point] | –
COc1ccc(S(=O)(=O)n2nc(C)cc2C)c(C)c1C | – | – | 0.0651 µM [rising, full curve, poor fit]
COc1cccc2cc(/C(=N/O)c3ccc(Br)cc3)oc12 | -46.1 | 11.2 µM [falling, partial curve] | 0.447 µM [falling, full curve, poor fit]
N#Cc1ccccc1CN1C(=O)S/C(=C/c2cccn2-c2ccc(C(=O)O)cc2)C1=O | 12.7 | 32.6 µM [rising, single point] | –
CCOC(=O)c1sc(NC(=O)CSc2nccn2C)nc1C | – | 0.00517 µM [rising, full curve, poor fit] | –
COc1ccc(CNC(=O)Cn2ccc(N)nc2=O)cc1 | 31.7 | 1.16 µM [rising, single point] | 0.092 µM [falling, single point]
Cc1cccc(S(=O)(=O)NCCC(=O)OC(C)C(=O)NC(=O)NC2CCCCC2)c1 (centres undefined) | 12.4 | 4.11 µM [falling, single point] | –
COc1ccc(S(=O)(=O)N2CCN(c3nc(-c4cccnc4)nc4ccccc34)CC2)cc1 | 2.31 | 0.13 µM [rising, full curve, poor fit] | –
Cc1ccc(-n2nc3ccc(N)cc3n2)cc1 | 20.1 | 0.731 µM [rising, partial curve] | –
C/C(=C\C(=O)O)C(=O)Nc1nccs1 | -4.03 | – | –
CN1CCN(CC#Cc2ccccc2)CC1CCO (centres undefined) | 15 | 0.82 µM [rising, single point] | –
CCOC(=O)CN1CC23C=CC(O2)C(C(=O)NC2CCCCCC2)C3C1=O (centres undefined) | 14.7 | 0.731 µM [falling, full curve] | –
CC(=O)Nc1ccc(/C=C/c2nc3ccccc3[nH]c2=O)cc1 | -0.833 | – | –
COCCn1nnnc1C(c1ccccc1OC)N1CCN(c2ccccc2F)CC1 (centres undefined) | 5.11 | 2.06 µM [rising, full curve] | 1.84 µM [rising, partial curve]
O=C(NC1CC2CCCC(C1)N2C(=S)Nc1ccc(Cl)cc1)C1CC1 (centres undefined) | -2.5 | – | –
O=C(C1CCCN(Cc2ccc3c(c2)OCO3)C1)N1CCCC1 (centres undefined) | -20 | 0.326 µM [falling, full curve, poor fit] | –
COC(=O)Cn1c(CN2CCOCC2)nc2c1c(=O)[nH]c(=O)n2C | -62.4 | – | 7.31 µM [falling, single point]
O=C(/C=C/c1ccco1)c1cccnc1 | -4.76 | 0.13 µM [falling, full curve, poor fit] | –
Cc1ccc(S(=O)(=O)NCCC(c2ccccc2)c2ccco2)cc1 (centres undefined) | -10.6 | 4.61 µM [falling, partial curve] | –

SMILES | cell number change [%] | AC50 [1] | AC50 [2]
N#C/C(=C\c1ccc(Sc2ccc(Cl)cc2)o1)c1nc2ccccc2[nH]1 | -26.6 | 16.4 µM [falling, single point] | –
Cc1ccc(S(=O)(=O)N2CCC(=O)N(CCOCc3ccc(Cl)cc3)CC2)cc1 | 13.6 | 7.31 µM [rising, partial curve] | –
O=C(OCC#CCSc1nc2ccccc2o1)c1cc2ccccc2o1 | 15.4 | 5.8 µM [rising, partial curve, poor fit] | –
O=C(CN1C(=O)/C(=C/c2ccccc2)SC1=S)NC1C=CS(=O)(=O)C1 (centres undefined) | 24.8 | 29.1 µM [falling, single point] | –
Cc1onc(-c2ccccc2)c1C(=O)Nc1nc(-c2cc(F)ccc2F)cs1 | 4.51 | 11.6 µM [rising, partial curve] | –
O=C(N/N=C\c1ccc([N+](=O)[O-])s1)C1COc2ccccc2O1 (centres undefined) | -53.8 | 35.5 µM [falling, single point] | 35.5 µM [falling, single point]
CCCCOc1ccccc1NC(=O)C=C(C)C | 7.66 | 5.17 µM [rising, partial curve] | –
CC1C=CCC2C(=O)N(c3cccc(C(=O)Nc4ccc(F)cc4)c3)C(=O)C12 (centres undefined) | – | 29.1 µM [falling, partial curve, poor fit] | –
CCC(CO)Oc1cc(NC(=O)c2ccccc2)c2ncn(C(C)C)c2c1 (centres undefined) | -8.78 | 0.184 µM [falling, full curve] | –
O=c1[nH]c(SCc2ccccc2[N+](=O)[O-])nc2nc[nH]c12 | 23 | 10.3 µM [rising, partial curve] | –
Cn1nc(CC(=O)Nc2cccnc2N2CCOCC2)c2ccccc2c1=O | 2.44 | – | –
CC1=C(C(=O)Nc2ccccc2)C(c2ccc(C)cc2)N=C(Nc2nc3ccccc3o2)N1 (centres undefined) | -1.76 | – | –
CCCn1c(=O)c(C(=O)NCCc2ccc(OC)cc2)c(O)c2ccccc21 | 6.08 | 14.6 µM [rising, partial curve] | –
COC(=O)c1c(-c2ccc(OC)cc2)sc2ccccc12 | -20.7 | 0.517 µM [falling, full curve] | –
COc1cc(/C=N/NC(=O)c2cccnc2)ccc1OC(=O)c1cc(OC)c(OC)c(OC)c1 | -0.87 | 29.1 µM [rising, single point] | –
CC1CCCC(NC(=O)CN2CCN(S(=O)(=O)c3ccc(Br)s3)CC2)C1C (centres undefined) | -52.9 | – | 23.1 µM [falling, partial curve]
COc1ccccc1NC(=O)Nc1ccncc1 | – | 0.651 µM [rising, full curve, poor fit] | 0.58 µM [rising, single point]
CNC(=S)N1N=C(c2ccc(Br)cc2)CC1c1ccc(Br)cc1 (centres undefined) | 25 | – | 0.058 µM [rising, full curve, poor fit]
CCN(CC(=O)Nc1ccccc1C(F)(F)F)C(=O)Cc1ccc2c(c1)CCC2 | -56.7 | 0.411 µM [falling, full curve] | 0.58 µM [falling, full curve, poor fit]
